These are yes or no findings as the source states them, for the method shown. Some entries that bind do so weakly or less than the wild type.
Molecular target: human 4-1BB His protein (Sinobiological, Beijing #10041-H08H) (human) (UniProt Q07011)
Test: blocking ELISA: 4-1BB-his coated, internal control 4-1BBL titrated, then 4-1BBL-Fc, detected with anti-human IgG-HRP; x axis printed 0 to 5 with ng/ml (apparently log10)

Sequences of proteins named here, by UniProt entry; tags and fusion partners are left off. A change or cut given only in a name is not applied to a line headed by its entry. Residues count along the entry.
UniProt Q07011, residues 24-186: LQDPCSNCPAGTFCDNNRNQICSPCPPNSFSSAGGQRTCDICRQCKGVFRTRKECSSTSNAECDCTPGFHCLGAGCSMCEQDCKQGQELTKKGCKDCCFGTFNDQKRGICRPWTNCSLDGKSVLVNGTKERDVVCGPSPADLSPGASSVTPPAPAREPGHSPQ
UniProt P41273, residues 71-254: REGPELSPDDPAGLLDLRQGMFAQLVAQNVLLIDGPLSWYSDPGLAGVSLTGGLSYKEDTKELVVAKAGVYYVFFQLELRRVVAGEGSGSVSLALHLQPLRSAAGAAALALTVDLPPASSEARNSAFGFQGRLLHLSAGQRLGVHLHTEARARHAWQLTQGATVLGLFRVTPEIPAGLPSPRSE

binding: binds
Substance: internal control 4-1BBL (from UniProt P41273 71-254) (ligand)
